In the supplement of paper PMC10849652:
Some of the results follow.

Protein sequences, listed by entry. Tags and fused reporters are not part of them. Lines headed by an entry give the natural chain unless they say otherwise; changes in a name come on top.
UniProt Q9BWE0: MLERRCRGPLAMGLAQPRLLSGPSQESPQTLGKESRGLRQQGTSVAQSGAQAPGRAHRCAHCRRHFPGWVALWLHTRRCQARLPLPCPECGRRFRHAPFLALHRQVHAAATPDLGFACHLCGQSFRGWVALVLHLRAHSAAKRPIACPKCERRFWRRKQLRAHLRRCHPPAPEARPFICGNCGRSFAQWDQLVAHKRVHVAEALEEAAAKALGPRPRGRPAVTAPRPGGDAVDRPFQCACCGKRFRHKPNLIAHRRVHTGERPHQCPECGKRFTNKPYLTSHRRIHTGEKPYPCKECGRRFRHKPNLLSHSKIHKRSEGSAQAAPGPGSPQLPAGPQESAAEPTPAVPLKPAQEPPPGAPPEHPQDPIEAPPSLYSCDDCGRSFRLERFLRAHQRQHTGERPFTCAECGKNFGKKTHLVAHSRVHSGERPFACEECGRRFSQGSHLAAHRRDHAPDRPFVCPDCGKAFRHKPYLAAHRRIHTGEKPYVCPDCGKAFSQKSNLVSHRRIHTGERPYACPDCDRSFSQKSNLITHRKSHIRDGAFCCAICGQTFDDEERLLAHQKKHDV
UniProt Q96PM5: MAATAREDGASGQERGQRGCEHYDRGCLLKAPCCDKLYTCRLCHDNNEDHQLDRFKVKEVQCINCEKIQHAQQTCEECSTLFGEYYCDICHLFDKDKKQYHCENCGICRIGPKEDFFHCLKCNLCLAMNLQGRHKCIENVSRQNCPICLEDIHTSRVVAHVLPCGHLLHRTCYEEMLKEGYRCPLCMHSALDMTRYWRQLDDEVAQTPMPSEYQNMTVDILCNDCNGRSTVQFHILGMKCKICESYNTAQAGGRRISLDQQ
UniProt Q00765: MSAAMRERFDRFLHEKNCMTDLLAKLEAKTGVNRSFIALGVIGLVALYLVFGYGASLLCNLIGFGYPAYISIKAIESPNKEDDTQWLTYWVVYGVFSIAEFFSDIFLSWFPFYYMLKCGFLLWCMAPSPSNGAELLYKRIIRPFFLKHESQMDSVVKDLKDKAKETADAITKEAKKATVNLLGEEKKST
UniProt P40938, whole entry, looked up: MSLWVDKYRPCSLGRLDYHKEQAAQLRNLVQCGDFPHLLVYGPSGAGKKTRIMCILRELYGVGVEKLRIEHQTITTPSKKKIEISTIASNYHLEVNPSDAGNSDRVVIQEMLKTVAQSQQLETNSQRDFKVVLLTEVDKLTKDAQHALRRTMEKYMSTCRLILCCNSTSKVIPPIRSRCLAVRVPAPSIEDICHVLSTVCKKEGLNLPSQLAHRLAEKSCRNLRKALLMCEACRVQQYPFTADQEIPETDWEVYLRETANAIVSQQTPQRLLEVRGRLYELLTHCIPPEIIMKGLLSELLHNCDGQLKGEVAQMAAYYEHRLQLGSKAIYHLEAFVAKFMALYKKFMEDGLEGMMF
UniProt P35250, whole entry, looked up: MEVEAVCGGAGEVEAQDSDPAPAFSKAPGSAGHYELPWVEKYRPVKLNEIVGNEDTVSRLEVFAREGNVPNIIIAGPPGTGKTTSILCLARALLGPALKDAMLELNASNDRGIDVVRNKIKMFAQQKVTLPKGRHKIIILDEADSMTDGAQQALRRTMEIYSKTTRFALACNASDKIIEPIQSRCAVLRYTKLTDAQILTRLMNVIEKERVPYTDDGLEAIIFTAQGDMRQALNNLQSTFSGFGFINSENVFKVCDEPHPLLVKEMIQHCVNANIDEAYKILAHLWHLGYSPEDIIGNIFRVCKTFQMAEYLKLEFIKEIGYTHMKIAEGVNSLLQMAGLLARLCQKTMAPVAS
UniProt P98175: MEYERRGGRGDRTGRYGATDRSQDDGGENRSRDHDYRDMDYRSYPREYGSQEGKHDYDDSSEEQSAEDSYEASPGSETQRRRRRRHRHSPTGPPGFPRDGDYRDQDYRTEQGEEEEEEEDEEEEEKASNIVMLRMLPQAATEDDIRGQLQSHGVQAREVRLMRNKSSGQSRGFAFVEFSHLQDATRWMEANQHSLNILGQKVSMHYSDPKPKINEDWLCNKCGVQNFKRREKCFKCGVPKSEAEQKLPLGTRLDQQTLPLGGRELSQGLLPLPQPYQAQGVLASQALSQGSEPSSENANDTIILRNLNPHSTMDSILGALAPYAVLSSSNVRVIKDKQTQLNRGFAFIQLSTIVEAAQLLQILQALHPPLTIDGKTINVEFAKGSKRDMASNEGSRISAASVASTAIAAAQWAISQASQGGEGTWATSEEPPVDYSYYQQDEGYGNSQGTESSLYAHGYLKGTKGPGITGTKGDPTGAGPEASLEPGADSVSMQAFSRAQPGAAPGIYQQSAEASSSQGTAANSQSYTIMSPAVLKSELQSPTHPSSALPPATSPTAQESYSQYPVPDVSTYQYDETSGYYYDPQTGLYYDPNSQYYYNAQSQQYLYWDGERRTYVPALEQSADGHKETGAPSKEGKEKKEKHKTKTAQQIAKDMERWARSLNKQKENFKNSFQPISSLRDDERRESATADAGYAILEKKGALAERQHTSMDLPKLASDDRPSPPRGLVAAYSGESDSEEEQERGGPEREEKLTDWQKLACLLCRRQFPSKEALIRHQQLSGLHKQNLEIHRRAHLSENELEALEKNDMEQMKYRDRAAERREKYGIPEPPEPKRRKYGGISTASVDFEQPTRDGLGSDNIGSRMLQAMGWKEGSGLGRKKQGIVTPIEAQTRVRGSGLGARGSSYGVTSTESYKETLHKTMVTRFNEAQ

Assays:
Experiment in all cases: log2 fold change, soluble protein after heating vs DMSO (PISA); higher = thermal stabilisation; K562 lysate, 10 uM; active = over 0.2 and 3.5 SD of the protein, either way, in both replicates (recomputed)
[1] = compound: CN1CC[C@H](c2c(O)cc(O)c3c(=O)cc(-c4ccccc4Cl)oc23)[C@H](O)C1 [alvocidib]
How it was run: (§1)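 K562 pellets were dounce-homogenised in PBS pH 7.4 containing 1 mM MgCl2, and the crude extract, at 1 mg/mL protein, was exposed to 10 μM compound for 30 min. Aliquots were heated for 3 min across 48°C-58°C, pooled, brought to 0.5% NP-40 at 4°C and spun at 21,000xg for 90 min, with the supernatant taken as soluble protein. TMTpro 16plex LC-MS/MS with equalised channel sums quantified that protein. Values are log-two fold changes in thermal stability relative to solvent controls, taken from duplicates.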

[2] = compound: CN1CCc2c(c3ccccc3n2Cc2ccc(C(=O)NO)cc2)C1 [Tubastatin A]
How it was run: as §1

[3] = compound: CNC(=O)C1=CC=CC=C1NC2=NC(=NC=C2Cl)NC3=C(C=C(C=C3)N4CCOCC4)OC
How it was run: as §1

[4] = compound: CNC(=O)c1ccc(Nc2ncc(C(F)(F)F)c(NCc3nccnc3N(C)S(C)(=O)=O)n2)cc1 [defactinib]
How it was run: as §1

[5] = compound: CNc1nc(-c2ccc3c(N)n[nH]c3c2)cc(N2C[C@@H](C(=O)NC3CCCCC3)CC[C@H]2C)n1
How it was run: as §1

[6] = compound: COC(=O)N[C@@H](C)CNc1nccc(-c2cn(C(C)C)nc2-c2cc(Cl)cc(NS(C)(=O)=O)c2F)n1 [encorafenib]
How it was run: as §1

[7] = compound: COC(=O)[C@H](CCSC)NC(=O)C1=C(C=C(C=C1)NC[C@H](CS)N)C2=CC=CC=C2
How it was run: as §1

[8] = compound: COc1cc(Nc2ncc3c(n2)-c2ccc(Cl)cc2C(c2c(F)cccc2OC)=NC3)ccc1C(=O)O [alisertib]
How it was run: as §1

[9] = compound: COc1cc2nc(-c3cc(F)ccc3O)nc(N[C@@H]3CNC[C@H]3C(C)(C)O)c2cc1OC
How it was run: as §1

[10] = compound: COc1cc2ncnc(Nc3ccc(F)c(Cl)c3)c2cc1OCCCN1CCOCC1 [gefitinib]
How it was run: as §1

[11] = compound: CS(=O)(=O)CCNCc1ccc(-c2ccc3ncnc(Nc4ccc(OCc5cccc(F)c5)c(Cl)c4)c3c2)o1 [lapatinib]
How it was run: as §1

[12] = compound: CS(=O)(=O)N1CCN(Cc2cc3nc(-c4cccc5[nH]ncc45)nc(N4CCOCC4)c3s2)CC1 [pictilisib]
How it was run: as §1

[13] = compound: C[C@@H](Oc1cc(-c2cnn(C3CCNCC3)c2)cnc1N)c1c(Cl)ccc(F)c1Cl [crizotinib]
How it was run: as §1

[14] = compound: C[C@H](C1=CC=C(C=C1)C(=O)NC2=C3C=CNC3=NC=C2)N
How it was run: as §1

[15] = compound: C[C@H](Nc1ncnc2nc[nH]c12)c1cc2cccc(Cl)c2c(=O)n1-c1ccccc1 [duvelisib]
How it was run: as §1

[16] = compound: Cc1cc(Nc2cc(CN3CCOCC3)c3nc(C)c(Cc4ccc(Cl)cc4F)n3n2)n[nH]1 [gandotinib]
How it was run: as §1

[17] = compound: Cc1cc(Nc2cc(N3CCN(C)CC3)nc(Sc3ccc(NC(=O)C4CC4)cc3)n2)n[nH]1 [tozasertib]
How it was run: as §1

[18] = compound: Cc1ccc(-n2nc(C(C)(C)C)cc2NC(=O)Nc2ccc(OCCN3CCOCC3)c3ccccc23)cc1 [doramapimod]
How it was run: as §1

[19] = compound: Cc1ccc(NC(=O)c2ccc(CN3CC[C@H](N(C)C)C3)c(C(F)(F)F)c2)cc1Nc1nccc(-c2cncnc2)n1 [bafetinib]
How it was run: as §1

[20] = compound: Cc1cccc(CC(=O)N2CCc3c2ccc(-c2cn(C)c4ncnc(N)c24)c3F)n1
How it was run: as §1

Row | Target | log2 fold change [1] | log2 fold change [2] | log2 fold change [3] | log2 fold change [4] | log2 fold change [5] | log2 fold change [6] | log2 fold change [7] | log2 fold change [8] | log2 fold change [9] | log2 fold change [10] | log2 fold change [11] | log2 fold change [12] | log2 fold change [13] | log2 fold change [14] | log2 fold change [15] | log2 fold change [16] | log2 fold change [17] | log2 fold change [18] | log2 fold change [19] | log2 fold change [20]
1 | RHEB (UniProt Q15382) | inactive: -0.015 | inactive: -0.062 | inactive: 0.008 | inactive: 0.026 | inactive: -0.125 | inactive: 0.029 | inactive: 0.076 | inactive: 0.045 | inactive: -0.003 | inactive: 0.017 | inactive: -0.036 | inactive: -0.019 | inactive: -0.011 | inactive: -0.091 | inactive: -0.009 | inactive: 0.018 | inactive: 0.039 | inactive: 0.061 | inactive: -0.059 | inactive: 0.092
2 | REPIN1 isoform 4 (UniProt Q9BWE0) | inactive: 0.051 | inactive: 0.086 | inactive: -0.053 | inactive: 0.011 | inactive: 0.024 | inactive: 0.02 | inactive: -0.024 | inactive: 0.04 | inactive: 0.021 | inactive: -0.013 | inactive: -0.004 | inactive: -0.011 | inactive: 0.051 | inactive: -0.034 | inactive: -0.064 | inactive: -0.006 | inactive: -0.041 | inactive: -0.065 | inactive: -0.038 | inactive: 0.051
3 | RAPGEF5, A0A590UJR0 | inactive: -0.06 | inactive: 0.083 | inactive: 0.064 | inactive: -0.172 | inactive: -0.009 | inactive: -0.26 | inactive: 0.066 | inactive: 0.068 | inactive: 0.003 | inactive: 0.177 | inactive: -0.115 | inactive: -0.097 | inactive: -0.17 | inactive: -0.097 | inactive: -0.012 | inactive: 0.095 | inactive: 0.12 | inactive: 0.022 | inactive: -0.422 | inactive: 0.059
4 | RCHY1 (UniProt Q96PM5) | inactive: -0.016 | inactive: 0.038 | inactive: 0.044 | inactive: 0.043 | inactive: 0.121 | inactive: -0.081 | inactive: -0.019 | inactive: -0.055 | inactive: 0.006 | inactive: -0.203 | inactive: 0.014 | inactive: -0.004 | inactive: -0.005 | inactive: 0.058 | inactive: 0.03 | inactive: -0.001 | inactive: 0.063 | inactive: 0.045 | inactive: 0.012 | inactive: -0.058
5 | REEP5 (UniProt Q00765) | inactive: -0.054 | inactive: -0.004 | inactive: -0.056 | inactive: 0.04 | inactive: 0.035 | inactive: 0.001 | active: 0.263 | inactive: -0.009 | inactive: 0.001 | inactive: -0.092 | inactive: -0.001 | inactive: -0.026 | inactive: 0.024 | inactive: -0.11 | inactive: 0.01 | inactive: 0.061 | inactive: -0.052 | inactive: -0.03 | inactive: -0.027 | inactive: 0.055
6 | RFC3 (UniProt P40938) | inactive: -0.008 | inactive: -0.142 | inactive: 0.024 | inactive: 0.036 | inactive: -0.014 | inactive: 0.002 | inactive: -0.005 | inactive: 0.007 | inactive: 0.029 | inactive: -0.075 | inactive: -0.045 | inactive: -0.009 | inactive: -0.043 | inactive: -0.072 | inactive: 0.037 | inactive: -0.039 | inactive: 0.027 | inactive: 0.016 | inactive: -0.051 | inactive: 0.1
7 | RFC2 (UniProt P35250) | inactive: -0.025 | inactive: -0.21 | inactive: -0.012 | inactive: 0.023 | inactive: -0.055 | inactive: 0.042 | inactive: 0.113 | inactive: 0.014 | inactive: 0.005 | inactive: 0.007 | inactive: -0.004 | inactive: 0.015 | inactive: -0.046 | inactive: -0.025 | inactive: 0.025 | inactive: -0.007 | inactive: 0.005 | inactive: 0.042 | inactive: -0.074 | inactive: 0.041
8 | RBM10 isoform 5 (UniProt P98175) | inactive: -0.019 | inactive: -0.023 | inactive: 0.01 | inactive: -0.032 | inactive: 0.138 | inactive: 0.04 | inactive: -0.038 | inactive: -0.008 | inactive: 0.017 | inactive: 0.047 | inactive: 0.008 | inactive: 0.032 | inactive: 0.024 | inactive: 0.002 | inactive: -0.023 | inactive: 0.065 | inactive: -0.004 | inactive: 0.084 | inactive: -0.077 | inactive: 0.01

Excerpt, entries 4 to 5
Row | Target | log2 fold change [1] | log2 fold change [2] | log2 fold change [3] | log2 fold change [4] | log2 fold change [5] | log2 fold change [6] | log2 fold change [7] | log2 fold change [8] | log2 fold change [9] | log2 fold change [10] | log2 fold change [11] | log2 fold change [12] | log2 fold change [13] | log2 fold change [14] | log2 fold change [15] | log2 fold change [16] | log2 fold change [17] | log2 fold change [18] | log2 fold change [19] | log2 fold change [20]
4 | RCHY1 (UniProt Q96PM5) | inactive: -0.016 | inactive: 0.038 | inactive: 0.044 | inactive: 0.043 | inactive: 0.121 | inactive: -0.081 | inactive: -0.019 | inactive: -0.055 | inactive: 0.006 | inactive: -0.203 | inactive: 0.014 | inactive: -0.004 | inactive: -0.005 | inactive: 0.058 | inactive: 0.03 | inactive: -0.001 | inactive: 0.063 | inactive: 0.045 | inactive: 0.012 | inactive: -0.058
5 | REEP5 (UniProt Q00765) | inactive: -0.054 | inactive: -0.004 | inactive: -0.056 | inactive: 0.04 | inactive: 0.035 | inactive: 0.001 | active: 0.263 | inactive: -0.009 | inactive: 0.001 | inactive: -0.092 | inactive: -0.001 | inactive: -0.026 | inactive: 0.024 | inactive: -0.11 | inactive: 0.01 | inactive: 0.061 | inactive: -0.052 | inactive: -0.03 | inactive: -0.027 | inactive: 0.055
